Source: doi:10.1101/2023.05.11.540316
These are yes or no findings as the source states them, for the method shown. In cells and extracts the contact can be indirect. Some entries that bind do so weakly or less than the wild type. Sequences can lack the tags named with a protein.

Protein sequences, listed by entry. Tags and fused reporters are not part of them.
UniProt P61765: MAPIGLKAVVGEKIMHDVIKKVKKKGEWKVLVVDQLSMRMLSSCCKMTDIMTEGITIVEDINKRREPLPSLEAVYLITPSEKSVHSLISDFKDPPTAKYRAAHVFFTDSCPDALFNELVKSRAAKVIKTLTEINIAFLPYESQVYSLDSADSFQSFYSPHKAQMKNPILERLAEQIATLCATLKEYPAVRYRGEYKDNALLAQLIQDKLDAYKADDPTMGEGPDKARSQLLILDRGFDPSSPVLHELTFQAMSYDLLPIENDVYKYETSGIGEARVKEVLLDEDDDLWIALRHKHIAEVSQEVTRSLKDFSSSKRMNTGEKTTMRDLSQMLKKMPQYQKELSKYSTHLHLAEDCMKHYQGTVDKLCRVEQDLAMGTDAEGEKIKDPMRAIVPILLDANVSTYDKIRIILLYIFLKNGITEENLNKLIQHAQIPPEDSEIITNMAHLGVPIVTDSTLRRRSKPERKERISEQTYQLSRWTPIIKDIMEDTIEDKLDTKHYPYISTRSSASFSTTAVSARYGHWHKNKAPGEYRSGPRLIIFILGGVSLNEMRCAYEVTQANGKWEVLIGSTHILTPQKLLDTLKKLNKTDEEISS

Molecular target: T1, GFP-DDHD2 (UniProt D3ZJ91)
T1 sequence: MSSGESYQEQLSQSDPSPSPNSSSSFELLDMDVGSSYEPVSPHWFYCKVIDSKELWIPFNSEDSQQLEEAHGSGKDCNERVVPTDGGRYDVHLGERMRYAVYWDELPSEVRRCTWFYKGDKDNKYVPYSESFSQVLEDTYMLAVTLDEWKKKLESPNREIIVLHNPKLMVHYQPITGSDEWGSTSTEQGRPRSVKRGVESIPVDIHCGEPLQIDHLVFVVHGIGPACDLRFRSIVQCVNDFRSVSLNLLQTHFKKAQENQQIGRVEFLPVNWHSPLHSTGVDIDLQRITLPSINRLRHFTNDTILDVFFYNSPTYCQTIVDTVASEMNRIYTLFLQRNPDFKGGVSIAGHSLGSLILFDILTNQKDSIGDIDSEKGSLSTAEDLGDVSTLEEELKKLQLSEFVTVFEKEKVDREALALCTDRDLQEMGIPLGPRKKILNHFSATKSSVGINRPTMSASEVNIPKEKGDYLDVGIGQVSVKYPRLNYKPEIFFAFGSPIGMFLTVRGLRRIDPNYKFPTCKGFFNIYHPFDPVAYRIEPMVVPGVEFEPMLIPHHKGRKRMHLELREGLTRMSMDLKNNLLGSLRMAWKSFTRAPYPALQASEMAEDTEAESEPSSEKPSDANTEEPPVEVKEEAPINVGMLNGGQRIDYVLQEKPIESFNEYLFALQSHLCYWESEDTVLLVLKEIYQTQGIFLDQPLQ
Experiment: co-IP

binding: binds
Substance: Syntaxin-binding protein 1 (STXBP1), endogenous in PC12 cells (from UniProt P61765 1-594)
